## Results of single-concentration screens

From ChEMBL document CHEMBL3988442, “University of Dundee, Small-Polar-MMV Screening Library” (2021).

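Assay of Toxoplasma gondii numbers, read through their beta-galactosidase reporter with a colour substrate. Concentration: 50 µM. Higher reads as fewer parasites (inferred from which compounds were picked for retests). Size under these conditions: about 18,000 compounds, about 170 of them at 50% or above in at least one test.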

Results are given as percent effect. The controls that fix the scale are not given in the record; negative values are as filed. This is an unselected part of the compounds tested.

Compound: CC(Cn1cncn1)NCc1ccsc1 (centres unmarked)
Percent Effect: -12.19%

Compound: NCC(=O)N1CCC(Cc2ccccc2)CC1
Percent Effect: -0.6495%

Compound: Cc1ccc2nc(COCC(=O)NCCN)[nH]c2c1
Percent Effect: 19.59%

Compound: CC1CCCN(C(=O)CN2CCC(O)CC2)C1 (centres unmarked)
Percent Effect: 2.354%

Compound: COc1ccc(Cl)cc1C(=O)N1CCn2cncc2C1
Percent Effect: 0.1645%

Compound: O=C(CSCc1cccs1)NC1CC1
Percent Effect: -4.555%

Compound: CCNC(=O)CNC(=O)C(C)(O)CCc1ccccc1 (centres unmarked)
Percent Effect: -0.3404%

Compound: O=C(Cn1nnc(-c2ccccc2)n1)N1CCCC1
Percent Effect: 1.592%

Compound: COc1cccc(CNCC2(C)COC2)n1
Percent Effect: -0.1756%

Compound: N#CCCN(CCC#N)Cc1cc[nH]n1
Percent Effect: -5.234%

Compound: COC(=O)c1cscc1C(=O)OC
Percent Effect: -8.452%

Compound: NC(=O)COc1ccccc1C(=O)N1CCSCC1
Percent Effect: 18.83%

Compound: CCCC(O)(CCC)CC(=O)N1CCNC(=O)C1
Percent Effect: 15.28%

Compound: NC1(CF)CCOCC1
Percent Effect: -2.053%

Compound: O=C(Nc1cnccc1O)C1(c2ccccc2)CC1
Percent Effect: -15.77%

Compound: COc1cccc(N2CCNCC2=O)c1
Percent Effect: -5.521%

Compound: NC(=O)c1cccnc1-c1ccc(O)cc1
Percent Effect: 0.4364%

Compound: Cc1ncccc1CN1CCCCC1(C)C(N)=O (centres unmarked)
Percent Effect: -1.675%

Compound: Cc1nnc(C(C)NC(=O)c2ccc(CO)cc2)o1 (centres unmarked)
Percent Effect: -1.707%

Compound: Fc1ccc(CNCCn2cccn2)cc1
Percent Effect: -6.618%

Compound: COCC(C)(CCO)NCc1cc(C)no1 (centres unmarked)
Percent Effect: 7.13%

Compound: CN1CCN(C(=O)Nc2ccccc2Cl)CC1
Percent Effect: -19.05%

Compound: CNC(=O)Cc1noc(CCc2cccc(F)c2)n1
Percent Effect: -4.248%

Compound: O=C(CN1CCCC(O)C1)NCCCc1ccccn1 (centres unmarked)
Percent Effect: 9.806%

Compound: O=C1CC(N2CCSCC2)C(=O)N1c1cccc(Cl)c1 (centres unmarked)
Percent Effect: 0.1867%

Compound: NCc1ccc(Cl)cn1
Percent Effect: 14.57%

Compound: CNC(C)(C)C(=O)OC
Percent Effect: 18.47%

Compound: COc1ccc(F)cc1C(=O)N1CC[C@H]2CC[C@@H](C1)N2
Percent Effect: -5.666%

Compound: Cc1cc(C)cc(NC(=O)NCC2(O)CCNC2)c1 (centres unmarked)
Percent Effect: -5.448%

Compound: CN(C)CC(=O)NC(C)(C)C(=O)NCC1CCCC1
Percent Effect: -3.521%

Compound: NCCNC(=O)c1ccno1
Percent Effect: 4.871%

Compound: Cn1cnc2cc(C(=O)N3CCSCC3)ccc21
Percent Effect: -6.446%

Compound: O=C(Nc1cncc(Br)c1Cl)N1CCC(O)C1 (centres unmarked)
Percent Effect: -3.753%

Compound: COc1ccc(C(=O)N2CCNCC2)cc1OC
Percent Effect: 17.09%

Compound: CNC(=O)NCc1cccc(OC)c1
Percent Effect: 5.045%

Compound: COCCCNC(=O)C(C)N(C)CC(C)C (centres unmarked)
Percent Effect: 5.033%

Compound: CS(=O)(=O)c1cccc(CO)c1
Percent Effect: 39.9%

Compound: CS(=O)(=O)N(CC(F)(F)F)c1ccncc1
Percent Effect: 8.034%

Compound: Cc1noc(C)c1S(=O)(=O)N1CC[S+]([O-])C(C)(C)C1 (centres unmarked)
Percent Effect: -20.3%

Compound: Cc1cc(CNC(=O)CCCN2CCCCC2)ccn1
Percent Effect: -5.389%

Compound: COCC(=O)Nc1ccc(C(=O)c2nccn2C)cc1
Percent Effect: -15.73%

Compound: NCCC1CCN(C(=O)Nc2cc(F)cc(F)c2)CC1
Percent Effect: -1.616%

Compound: CCN1C(=O)Cc2cc(C(=O)NC(C)(C)C)ccc21
Percent Effect: -40.38%

Compound: CCOc1cncc(NCc2ccncc2)n1
Percent Effect: -2.533%

Compound: Cc1cnn(CC(=O)NCCC2CCOC2)c1 (centres unmarked)
Percent Effect: -21.15%

Compound: COCC(C)NC(=O)c1sc(C)nc1C (centres unmarked)
Percent Effect: 20.34%

Compound: Cc1nnc(CNC(=O)NCC(F)(F)F)n1C1CC1
Percent Effect: -1.546%